Experimental data from PubChem BioAssay AID588590 (National Center for Advancing Translational Sciences (NCATS), 2011).
Where “and” joins values, the source holds several entries; their conditions need not be identical. Equal entries are not always repeated. The campaign covered roughly 390,000 compounds. About 4,000 (1%) were called active. The shares of active, inactive and inconclusive entries below differ from those in the screen. The call rests on the fitted dose curve; in most records, active means well fitted inhibition curve with a large enough effect; inconclusive means small, poorly fitted or top-dose-only effect, or another doubt; inactive means no such curve, though single readings can be large or run the other way. Where the call is inconclusive, the potency comes from a doubtful curve fit.
Potency means the concentration at half of the fitted maximal effect.

Protein sequences, listed by entry. Tags and fused reporters are not part of them. Lines headed by an entry give the natural chain unless they say otherwise; changes in a name come on top.
UniProt Q9UNA4: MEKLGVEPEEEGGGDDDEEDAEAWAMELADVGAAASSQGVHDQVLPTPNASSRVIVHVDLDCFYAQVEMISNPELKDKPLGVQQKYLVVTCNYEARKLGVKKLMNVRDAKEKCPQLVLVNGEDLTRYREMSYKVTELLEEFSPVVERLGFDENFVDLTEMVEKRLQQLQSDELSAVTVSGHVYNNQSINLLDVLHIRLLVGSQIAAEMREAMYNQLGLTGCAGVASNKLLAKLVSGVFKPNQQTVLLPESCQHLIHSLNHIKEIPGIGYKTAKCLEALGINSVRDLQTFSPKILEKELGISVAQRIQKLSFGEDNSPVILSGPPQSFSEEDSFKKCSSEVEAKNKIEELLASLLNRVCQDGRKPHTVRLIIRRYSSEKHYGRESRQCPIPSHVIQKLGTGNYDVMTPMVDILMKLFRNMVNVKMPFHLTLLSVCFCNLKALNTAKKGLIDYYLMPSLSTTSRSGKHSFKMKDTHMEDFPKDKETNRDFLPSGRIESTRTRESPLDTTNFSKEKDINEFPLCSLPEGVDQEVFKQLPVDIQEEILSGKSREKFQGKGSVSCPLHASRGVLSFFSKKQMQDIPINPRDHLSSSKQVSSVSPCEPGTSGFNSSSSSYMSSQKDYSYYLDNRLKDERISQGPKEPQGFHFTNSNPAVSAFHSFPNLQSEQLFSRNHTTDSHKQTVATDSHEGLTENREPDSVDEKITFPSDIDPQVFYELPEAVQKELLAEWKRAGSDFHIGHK

The compounds below were run against DNA polymerase iota (Homo sapiens) (UniProt Q9UNA4) (assay: qHTS for Inhibitors of Polymerase Iota). Settings: Pol iota fluorescent replication assay, 10 min; series mostly up to 115 µM; activity, negative = inhibition: at the top concentration.
Method in brief: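 Fluorescent replication assay read twice, at 0 min and 10 min after adding 50 nM (final) substrate. Enzyme (10 nM) and compounds were first incubated 15 min at room temperature; enzyme-free buffer wells were negative controls.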
For `COC(=O)c1sccc1S(=O)(=O)N(CC(=O)Nc1cc(C)ccc1C)c1ccc(C)c(C)c1`, the “activity, negative = inhibition” value was inactive: -6.37%.
For `c1ccc2c(c1)C(=Nn1cnnc1)c1ccccc1-2`, the Potency was inconclusive: 70.8 µM [inhibitor, single point].
`Cc1c(NC(=O)C(C)OC(=O)c2cccnc2)c(=O)n(-c2ccccc2)n1C` (stereo unspecified) was tested, and the “activity, negative = inhibition” value was inactive: 58.8%.
For `CCCc1nnc(NC(=O)CCC(=O)NC2CCCCC2)s1`, the “activity, negative = inhibition” value was inactive: 24.6%.
In the case of `CCn1cc(CNC(=O)CC2C(=O)NCCN2CC(c2ccccc2)c2ccccc2)cn1` (stereo unspecified), the Potency is reported as inconclusive: 25.1 µM [inhibitor, partial curve, poor fit].
For `COc1ccc(S(=O)(=O)N2CCOCC2)cc1NC(=O)c1ccccc1C`, the “activity, negative = inhibition” value was inactive: 18.6%.
For `O=C(COC(=O)[C@@H]1CCCN1C(=O)c1cccs1)Nc1cccc([N+](=O)[O-])c1`, the “activity, negative = inhibition” value was inactive: 13.8%.
In the case of `Cc1ccc(NN2C(=O)C=C(c3ccccc3)C2=O)cc1`, the Potency is reported as inconclusive: 20 µM [inhibitor, single point].
With `COc1ccc(N2CCN(C(=O)c3cc4c(=O)oc5ccc(C)cc5c4s3)CC2)cc1` the “activity, negative = inhibition” value was inactive: 17.8%.
In the case of `C=CCn1c(SCC(=O)NC(=O)c2cccn2C)nc2ccccc2c1=O`, the Potency is reported as inconclusive: 8.91 µM [inhibitor, full curve].
With `CN(CC1CCOCC1)C(=O)CC1C(=O)NCCN1Cc1ccccc1F` (stereo unspecified) the Potency was inconclusive: 100 µM [inhibitor, single point].
With `O=C(CC(CC(=O)c1ccc(Cl)cc1)c1ccccc1C(=O)O)c1ccc(Cl)cc1` the Potency was inconclusive: 44.7 µM [inhibitor, partial curve, poor fit].
`O=C(Cn1cnc2nc3c(cc2c1=O)CCCC3)Nc1ccc(F)cc1Cl` was tested, and the “activity, negative = inhibition” value was inactive: 5.15%.
`CCOCCc1nnc(NC(=O)C(=O)c2cc(C)n(-c3ccc(C)c(C)c3)c2C)s1` was tested, and the “activity, negative = inhibition” value was inactive: 0.228%.
In the case of `CC(C)CNC(=O)C1Nc2ccc(OC(F)(F)F)cc2C2C=CCC12` (stereo unspecified), the Potency is reported as inconclusive: 17.8 µM [inhibitor, full curve, poor fit].
For `C/C(=C\c1ccccc1)CN1CCN(c2cccc(Cl)c2)CC1`, the Potency was inconclusive: 79.4 µM [inhibitor, partial curve, poor fit].
With `CCCCNc1nc2c(S(=O)(=O)c3ccc(C)cc3)nnn2c2ccsc12` the “activity, negative = inhibition” value was inactive: 19.9%.
With `O=C(Nc1ccc(Cl)cc1)c1nc[nH]c1C(=O)NCCN(CCNC(=O)c1[nH]cnc1C(=O)Nc1ccc(Cl)cc1)CCNC(=O)c1[nH]cnc1C(=O)Nc1ccc(Cl)cc1` the Potency was inconclusive: 89.1 µM [inhibitor, single point].
`CN1CCc2[nH]c3ccc(C(=O)NN)cc3c2C1` was tested, and the Potency was inconclusive: 35.5 µM [inhibitor, full curve, poor fit].
In the case of `O=C(c1ccccc1)N1CCN(Cc2c[nH]c3ccccc23)CC1`, the Potency is reported as inconclusive: 7.94 µM [inhibitor, full curve, poor fit].
In the case of `CN(C)c1ccc(/C=C2\SC(N3CCCCC3)=NC2=O)cc1`, the “activity, negative = inhibition” value is reported as inactive: 23%.
In the case of `CCc1ccc(-c2cc(C)no2)cc1S(=O)(=O)NCc1ccco1`, the Potency is reported as inconclusive: 50.1 µM [inhibitor, partial curve, poor fit].
With `O=C(NC1CCCCC1)c1ccc(Cn2c(SCc3ccccc3)nc3cccnc32)cc1` the Potency was inconclusive: 89.1 µM [inhibitor, single point].
In the case of `CCn1c(SCC(=O)NCc2ccco2)nnc1-c1cccc(N(C)C)c1`, the “activity, negative = inhibition” value is reported as inactive: 10.8%.
`Cc1cccc(/C=N/n2c(COc3ccccc3)n[nH]c2=S)c1` was tested, and the Potency was inconclusive: 8.91 µM [inhibitor, partial curve, poor fit].
For `Cc1ccccc1OCC(=O)Nc1ccc(S(=O)(=O)Nc2onc(C)c2C)cc1`, the Potency was inconclusive: 100 µM [inhibitor, single point].
With `CC(C)c1ccc(C(C)NCCS(=O)(=O)c2ccc(Br)cc2)cc1` (stereo unspecified) the Potency was inconclusive: 28.2 µM [inhibitor, partial curve, poor fit].
For `CCOC(=O)c1c(C)c(-c2ccccc2)n(CC(=O)NCCCN(CC)CC)c1C`, the Potency was inconclusive: 56.2 µM [inhibitor, partial curve, poor fit].
`COC(=O)C(NS(=O)(=O)CCl)C(C)C` (stereo unspecified) was tested, and the “activity, negative = inhibition” value was inactive: 30%.
`N#Cc1ccc(CC(=O)c2ccccc2)[nH]c1=O` was tested, and the “activity, negative = inhibition” value was inactive: 82.8%.
`COc1cc(/C=C2\SC(=S)N(NC(=O)c3ccccc3OC)C2=O)ccc1O` was tested, and the Potency was active: 50.1 µM.
With `O=C1CCC[C@@H]2Cc3nc4ccc(O)cc4cc3[C@@H]3CCN1[C@H]23` the Potency was inconclusive: 39.8 µM [inhibitor, single point] and inconclusive: 14.1 µM [inhibitor, full curve, poor fit].
With `CCOC(=O)C1C(c2cccs2)NC(=O)NC1(O)C(F)(F)F` (stereo unspecified) the Potency was inconclusive: 100 µM [inhibitor, partial curve, poor fit].
For `CCCCCCc1cc2cc(-c3nnc(-c4cccc(Cl)c4)o3)c(=O)oc2cc1O`, the Potency was inconclusive: 79.4 µM [inhibitor, partial curve, poor fit].
`O=C(Nc1nccs1)c1ccc(Cl)c(S(=O)(=O)N2CCOCC2)c1` was tested, and the Potency was inconclusive: 7.94 µM [inhibitor, full curve].
In the case of `O=C(Cn1nnc(-c2ccccc2NC(=O)c2cccs2)n1)Nc1ccccc1`, the Potency is reported as inconclusive: 2.82 µM [inhibitor, partial curve, poor fit].
In the case of `CCOC(=O)[C@H]1[C@H]2COc3ccc(C)cc3[C@@H]2N2C(=O)c3cc(C)ccc3NC(=O)[C@@]12C`, the Potency is reported as inconclusive: 8.91 µM [inhibitor, partial curve, poor fit].
In the case of `COC(=O)Cc1cc(=O)n(-c2nc3ccccc3s2)[nH]1`, the Potency is reported as inconclusive: 100 µM [inhibitor, partial curve, poor fit].
With `COc1ccc(N=C2S/C(=C\c3cc(C)n(C)c3C)C(=O)N2CC(C)C)cc1` the “activity, negative = inhibition” value was inactive: -5.58%.
In the case of `Cn1cnnc1SCC(=O)NC1CCCN(Cc2ccc(Cl)cc2)C1` (stereo unspecified), the “activity, negative = inhibition” value is reported as inactive: 1.31%.
For `COc1ccc(-c2cn(Cc3ccc(C(N)=O)cc3)c(-c3ccncc3)n2)cc1`, the Potency was inconclusive: 89.1 µM [inhibitor, single point].
With `CSc1nc2nc(-c3cccs3)cc(C(F)(F)F)c2c(=O)[nH]1` the “activity, negative = inhibition” value was inactive: 42.5%.
`COc1ccc(C(=O)Nc2ccccc2)cc1S(=O)(=O)NCc1ccco1` was tested, and the Potency was inconclusive: 28.2 µM [inhibitor, partial curve, poor fit].
`O=C(CCSC1=NCCCN1)c1ccc(F)cc1` was tested, and the “activity, negative = inhibition” value was inactive: -2.52%.
For `Cc1ccn2c(=O)nc(SCC(=O)NCc3ccccc3Cl)nc2c1`, the Potency was active: 56.2 µM.
In the case of `C/C(N)=C(/C#N)C(=O)CSc1nc2cc(Cl)ccc2s1`, the Potency is reported as inconclusive: 39.8 µM [inhibitor, single point].
`CCC(C)C(=O)N1c2ccccc2C(=C2SC(C(=O)OC)=C(C(=O)OC)S2)C(=S)C1(C)C` (stereo unspecified) was tested, and the Potency was inconclusive: 1.26 µM [inhibitor, full curve, poor fit].
For `Cc1ccc(/C=C/C(=O)c2ccccc(=O)c2O)c(C)c1`, the Potency was inconclusive: 14.1 µM [inhibitor, partial curve, poor fit].
In the case of `COc1ccc(-c2ccc(C)cc2)cc1C1C2C=CCC(C)C2C(=O)N1Cc1ccccc1` (stereo unspecified), the “activity, negative = inhibition” value is reported as inactive: 4.63%.
In the case of `CCCNC(=O)c1ccc(-c2nc3ccccc3s2)s1`, the Potency is reported as inconclusive: 12.6 µM [inhibitor, full curve, poor fit].
With `C=CCn1c(C)cc(C(=O)COC(=O)c2ccc(N)c([N+](=O)[O-])c2)c1C` the “activity, negative = inhibition” value was inactive: 11.6%.
With `Cc1cc(C)n2cc(CSCc3ccco3)nc2n1` the Potency was inconclusive: 12.6 µM [inhibitor, full curve, poor fit].
`CCOC(=O)c1ccc(NC(=S)NCCc2ccccc2)cc1` was tested, and the Potency was inconclusive: 39.8 µM [inhibitor, full curve, poor fit].
With `Cc1ccc(S(=O)(=O)c2c(C)cc(C)[nH]c2=O)c(C)c1` the Potency was inconclusive: 15.8 µM [inhibitor, partial curve, poor fit].
`COc1ccc(/C=N/NC(=O)CNC(=O)/C=C/c2ccco2)cc1OC` was tested, and the Potency was inconclusive: 56.2 µM [inhibitor, partial curve, poor fit].
For `CCCCCc1ccc(OCCCC[n+]2cccc(C)c2)c(CCCCC)c1`, the Potency was inconclusive: 89.1 µM [inhibitor, single point].
`O=[N+]([O-])c1ccc(C2CC(c3ccccc3)=Nc3ccccc3S2)cc1` (stereo unspecified) was tested, and the Potency was inconclusive: 11.2 µM [inhibitor, partial curve, poor fit].
`COc1ccc(NC(=O)CCc2nc3cccnc3n2-c2ccccc2)cc1Cl` was tested, and the “activity, negative = inhibition” value was inactive: 29.4%.
In the case of `COc1ccc(NC(=O)C2CCCN2c2ccc(OC)c(OC)c2)cc1OC` (stereo unspecified), the Potency is reported as inconclusive: 28.2 µM [inhibitor, partial curve].
`Cc1ccc(NC(=O)C2CCN(S(=O)(=O)c3ccc4c(c3)NC(=O)C(C)S4)CC2)c(C)c1` (stereo unspecified) was tested, and the Potency was inconclusive: 89.1 µM [inhibitor, single point].
`Cc1ccc(-n2nc3ccc(N)cc3n2)cc1Cl` was tested, and the “activity, negative = inhibition” value was inactive: 77.5%.
In the case of `Cc1ccc(O)c(NC(=O)c2cc(-c3ccc(F)cc3)on2)c1`, the Potency is reported as inconclusive: 79.4 µM [inhibitor, single point].
For `CCn1c2ccccc2c2cc(NC(=O)COC(=O)c3ccc(NC(=O)CC#N)cc3)ccc21`, the Potency was active: 22.4 µM.
With `Fc1cc(F)c2nc(Nc3nc4cc5c(cc4s3)OCO5)sc2c1` the Potency was inconclusive: 22.4 µM [inhibitor, full curve, poor fit].
With `O=C(N/N=C/c1cccc(OC(=O)c2ccc([N+](=O)[O-])cc2)c1)c1cccnc1` the “activity, negative = inhibition” value was inactive: 148%.
With `N#CCSc1n[nH]c2nc3c(c(=O)n12)C1(CCCCC1)Cc1ccccc1-3` the Potency was inconclusive: 12.6 µM [inhibitor, full curve, poor fit].
